Results: PubChem BioAssay AID624297 (National Center for Advancing Translational Sciences (NCATS), 2012)
Hit rate of the full screen: of about 340,000 compounds, about 6,200 (1.8%) were called active. This list was built around the results that the source calls inconclusive (neither active nor inactive); the mix of calls is not that of the screen. The call rests on the fitted dose curve; in most records, active means well fitted activation curve with a large enough effect; inconclusive means small, poorly fitted or top-dose-only effect; inactive means no such curve, though single readings can be large or run the other way. Potencies beside an inconclusive call are fits to weak or partial responses and may not hold up.

Test: A quantitative high throughput screen for small molecules that induce DNA re-replication in SW480 colon adenocarcinoma cells. Further: nearly all actives have a fitted effect of over 55% in size. On re-replication activation: % of control where 0% means no effect.
Conditions: Hoechst DNA content imaging, 48 h; re-replication activation: at 46.1 µM (top of the series) unless noted
Outline: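 Quantitative HTS format with DMSO vehicle controls; 48 hr drug incubation at 37 C, then 40 min Hoechst staining and scanning imager measurement at 405 nm excitation.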
Potency means the concentration at half of the fitted maximal effect.

Compound	Potency	re-replication activation
O=C(N/N=C/c1ccccc1O)c1cccc2ccccc12	inconclusive: 1.16 µM [activator, full curve, poor fit]	
CCCNCC1C(Oc2ccc(Cl)cc2)C(=O)N1c1ccccc1C (stereo not drawn)	inactive	
CCCN1CNC(=S)N(c2cccc(C)c2C)C1	inconclusive: 32.6 µM [activator, partial curve, poor fit]	
COc1cc2c3nnc(-c4ccc(F)cc4)c-3cn(Cc3ccccc3)c2cc1OC	inconclusive: 29.1 µM [activator, single point]	
CCOc1cc2c(cc1C(C)(C)C)NC(=O)CS2	inconclusive: 25.9 µM [activator, partial curve, poor fit]	
CC(NC(=S)Nc1cccc(C(F)(F)F)c1)C(C)(C)C (stereo not drawn)	inconclusive: 29.1 µM [activator, single point]	
COc1ccc(-c2ccc(CCC(=O)O)n2-c2ccccc2O)cc1	active: 20.6 µM	
O=C(CN1CCOCC1)NN1CC(=O)N(c2ccc(Cl)cc2)CC1=O	inactive	
O=C(NC1=NCCS1)C1CCN(S(=O)(=O)c2cc([N+](=O)[O-])ccc2Cl)CC1	inconclusive: 29.1 µM [activator, single point]	
CC(CNC(=O)c1ccc(C#N)cc1)NC(=O)c1ccc(C#N)cc1 (stereo not drawn)	inactive	
CCCCC1CCC(C(=O)N2CCOCC2)CC1 (stereo not drawn)	inconclusive: 29.1 µM [activator, single point]	
O=C(c1cc(-c2cccnc2)nc2ccc(Cl)cc12)N1CCN(S(=O)(=O)c2cccs2)CC1	inconclusive: 18.4 µM [activator, single point]	
Cc1ccc2[nH]c(C(=O)N3CCN(C(c4ccccc4)c4ccccc4)CC3)cc2c1	inconclusive: 5.8 µM [activator, partial curve, poor fit]	
CCC1CCCCN1CCCNC(=O)c1ccc2c(=O)n(Cc3ccc(OC)cc3)c(=O)[nH]c2c1 (stereo not drawn)	inconclusive: 20.6 µM [activator, single point]	
COc1ccc(NC(=O)CCCN2C(=O)CN(C)C2=O)cc1Cl	inactive	
NC(=O)N/N=C/c1coc2ccc3ccccc3c2c1=O	inconclusive: 11.6 µM [activator, partial curve, poor fit]	
NC(=O)c1cc2ccc(O)cc2oc1=Nc1ccccc1	inconclusive: 4.61 µM [activator, single point]	
COc1ccc(C(=O)NC2CCN(CC(=O)NCc3ccccc3F)CC2)cc1	inactive	
COCCNCCCCOc1ccc(Br)cc1C	inconclusive: 10.3 µM [activator, partial curve, poor fit]	
COc1ccc(C2=NOC(C(=O)NCc3ccco3)C2)cc1 (stereo not drawn)	active: 18.4 µM	
Cc1ccc(C(=O)N2CCN(c3cc4c(cc3[N+](=O)[O-])n(C)c(=O)n4C)CC2)cc1	inconclusive: 32.6 µM [activator, partial curve, poor fit]	
CC1(C)CC(=O)c2cn3c(nc2C1)nc1ccccc13	inactive	
Cc1ccc(C)c(S(=O)(=O)NCC(=O)OCC(=O)Nc2sccc2C(N)=O)c1	inactive	

Compound	Potency	re-replication activation
Cc1ccnc(N2CCCC(C(=O)NCc3cccs3)C2)n1 (stereo not drawn)	inactive	
Cc1nn(CCCC(=O)NCCCN2CCN(C)CC2)c(=O)c2c1sc1ccccc12	inconclusive: 29.1 µM [activator, single point]	
CCOC(=O)CC(=O)CSc1nc(-c2ccc3c(c2)OCO3)cc(C(F)(F)F)c1C#N	inconclusive: 20 µM [activator, single point]	
Cc1cc(CNC(=O)COc2ccc(C)c(C)c2)c2ccccc2n1	inconclusive: 0.231 µM [activator, single point]	
CN(Cc1ccc(OC(F)F)cc1)C(=O)c1ccccc1Sc1ccccc1C#N	inactive	
C=CCn1c(=O)/c(=C/c2ccc(Cl)cc2)s/c1=C(/C#N)c1nnc2n1CCCCC2	inactive	
O=C(c1ccc(F)cc1)N1CCN=C1c1ccccc1	active: 13 µM	
CSc1ncccc1C(=O)OCc1ccc(C#N)cc1	inconclusive: 29.1 µM [activator, single point]	
COc1ccccc1NC(=O)NC1(C(=O)N2CCN(C)CC2)CCCCC1	inactive	
COc1ccc2c(c1)C(=O)[C@H](O)[C@@H](c1ccc(OC)c(Br)c1)O2	active: 4.11 µM	
COc1ccc(CC(=O)Oc2ccc(C#N)cc2)cc1		inconclusive: 35.2% [activator]
CSc1nnc(C)c(/C=C/Nc2ccc(F)cc2F)n1	inactive	
Cc1cc(NC(=O)c2cc(-c3ccccc3)on2)n(-c2ccccc2)n1	inconclusive: 18.4 µM [activator, single point]	
Cc1nc2nc(SCC(=O)c3ccc([N+](=O)[O-])cc3)[nH]c2cc1Br	inconclusive: 14.6 µM [activator, single point]	
CCC(=O)NC(c1cccs1)c1cc([N+](=O)[O-])c2cccnc2c1O (stereo not drawn)	inconclusive: 18.4 µM [activator, single point]	
Cn1cccc1/C=N/NC(=O)c1cc2ccccc2cc1O	inconclusive: 18.4 µM [activator, single point]	
Cc1cc(C)c2c(N)c(C(=O)C(C)(C)C)sc2n1	inconclusive: 18.4 µM [activator, single point]	
Cc1ccc(S(=O)(=O)Nc2ccccc2N=Cc2ccc([N+](=O)[O-])cc2[N+](=O)[O-])cc1	inconclusive: 20.6 µM [activator, single point]	
CC(NC(=S)Nc1ccccc1Cl)C(c1ccccc1)N1CCOCC1 (stereo not drawn)	inactive	
Cc1ccc(C2=NNC(C(O)C(O)C(O)C(O)CO)S2)cc1 (stereo not drawn)	inactive	
O=C(CSc1nnc(-c2ccccc2F)o1)NC1CCCCC1	inconclusive: 0.82 µM [activator, partial curve, poor fit]	
O=C(Nc1nccs1)c1ccc(Cl)s1	inactive	
CCOCCCN(C)C1CCN(C(=O)c2oc3ccccc3c2NC(=O)COc2ccc(F)cc2)CC1	inconclusive: 29.1 µM [activator, single point]	

Some of these compounds in order of molar mass, falling:
Compound	Potency	re-replication activation
COc1cc2c3nnc(-c4ccc(F)cc4)c-3cn(Cc3ccccc3)c2cc1OC	inconclusive: 29.1 µM [activator, single point]	
Cc1ccc(C2=NNC(C(O)C(O)C(O)C(O)CO)S2)cc1 (stereo not drawn)	inactive	
CC1(C)CC(=O)c2cn3c(nc2C1)nc1ccccc13	inactive	

Remaining list, next part:

Compound	Potency	re-replication activation
COc1cc(OCc2ccccc2)c(OC)c(OCc2ccccc2)c1	inconclusive: 20.6 µM [activator, single point]	
CCOc1ccc(-n2ccnc(SCC(=O)Nc3cccc(OC)c3)c2=O)cc1	inconclusive: 0.651 µM [activator, partial curve, poor fit]	
N#CCC(=O)N/N=C\c1cc(Br)ccc1OC/C=C/c1ccccc1	inconclusive: 23.1 µM [activator, single point]	
COc1ccc(/C=C/C(=O)c2ccccc2)c(OC)c1	inconclusive: 29.1 µM [activator, single point]	
CCc1nn(-c2ccccc2)c2c1-c1cc(OC)c(OC)cc1C1(N2)C(=O)Nc2ccccc21 (stereo not drawn)	inconclusive: 29.1 µM [activator, single point]	
COc1cc(/C=N/n2cnc3scc(-c4cccs4)c3c2=O)cc(OC)c1OC	inconclusive: 3.26 µM [activator, partial curve, poor fit]	
Cc1ccc(S(=O)(=O)Nc2cccc3c2O[C@H](CN(C)Cc2ccc(-c4ccccc4)cc2)[C@@H](C)CN([C@H](C)CO)C3=O)cc1	inconclusive: 23.1 µM [activator, single point]	
C/C(=N/NC(=O)c1ccc(C(C)(C)C)cc1)c1ccccn1	inconclusive: 1.03 µM [activator, full curve, poor fit]	
C=C(C)c1sc(-c2ccc(Cl)cc2)nc1C		inactive: -23.3% [at 9.22 µM]
COc1ccc(S(=O)(=O)N2CCOCC2)cc1NC(=O)Cc1sc(C)nc1-c1ccc(F)cc1	inactive	
Cc1ccc(C(=O)/C=C\C(=O)c2ccc(C)cc2)cc1	inconclusive: 29.1 µM [activator, single point]	
CCOC(=O)c1cn2nc(Oc3cccc(C(F)(F)F)c3)ccc2n1	inconclusive: 7.31 µM [activator, partial curve, poor fit]	
CCN(CC)c1ccc(NS(=O)(=O)c2ccc(OC)cc2)cc1	inactive	
COc1cc(/C=N/NC(N)=S)ccc1OCC(=O)Nc1ccc(C)c(C)c1	inconclusive: 3.26 µM [activator, full curve]	
O=C1CC(N2CCSCC2)C(=O)N1c1cccc(Cl)c1 (stereo not drawn)	inconclusive: 18.4 µM [activator, single point]	
CN(C)c1cc[n+](CC(=O)Nc2cc(C(F)(F)F)ccc2Cl)cc1	inconclusive: 29.1 µM [activator, single point]	
Cc1ccc(SCc2nc3ccccc3n2CC(=O)Nc2ccccc2)cc1	inconclusive: 29.1 µM [activator, single point]	
Clc1ccc(CNc2ncnc3[nH]ncc23)cc1Cl	inconclusive: 8.2 µM [activator, partial curve]	
COc1ccc(-c2cccc(-c3cc(=O)oc4cc(OC)c(OC)c(OC)c34)c2)cc1	inconclusive: 0.461 µM [activator, full curve, poor fit]	
Cc1cc(C)nc(SC2c3cccc4cccc(c34)C2NS(=O)(=O)c2ccccc2)n1 (stereo not drawn)	inconclusive: 25.9 µM [activator, partial curve, poor fit]	
COc1ccc(N(C(=O)Cn2nnc(-c3ccc(Cl)cc3)n2)C(C(=O)NCC2CCCO2)c2ccncc2)cc1 (stereo not drawn)	inconclusive: 0.461 µM [activator, partial curve, poor fit]	
COC(CN(C(=O)CCl)C(C(=O)NC1CCCCC1)c1ccccc1C)OC (stereo not drawn)	inconclusive: 29.1 µM [activator, single point]	
